Out of some 1,200 compounds screened, fewer than 10 were called active. Calls come from the whole dose curve; as a rule, active = well fitted curve in the direction sought with a large enough effect; inconclusive = small, poorly fitted or top-dose-only effect, or another doubt; inactive = no such curve, though single readings can be large or run the other way. This is one part of the list.
Assay: Confirmatory qHTS assay for inhibitors of Activation Induced Cytidine Deaminase (AID): UDG signals; note: 0% is about no effect
Conditions: UDG coupled enzyme activity counter-screen; at 115 µM (top of the series) unless noted
Procedure, shortened: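 Fluorescence at 560 nm excitation/665 nm emission reports UDG activity, read after NaOH quench of a 4 h room-temperature reaction of DJC20/DJC23 substrates with AID (1 uM, 4/3x) and UDG (2 U/mL, 4/3x); compounds at 7.32 nM - 114 uM final, preincubated 10 min.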

SMILES	activity change, negative = inhibition
Cc1ccc2c(C)c(C(=O)N(Cc3ccc(Cl)cc3)C3CCS(=O)(=O)C3)oc2c1 (stereo unspecified)	inactive: -12.5%
N#C/C(=C\c1ccc(-c2cc(Cl)ccc2Cl)o1)C(=O)Nc1cccc2ncccc12	inactive: -8%
Cc1cccc(CN2C(=O)c3ccccc3S(=O)(=O)c3ccc(C(=O)NCCC4=CCCCC4)cc32)c1	inactive: -4.44%
COc1ccc(Cl)cc1NC(=O)c1c(NCc2ccc(C)o2)sc2c1CCCCC2	inactive: 5.87%
CC1CCN(S(=O)(=O)c2cn(CC(=O)Nc3cccc(C(F)(F)F)c3)c(=O)c3ccccc23)CC1	inactive: -11.9%
Cc1ccc(Nc2c(-c3cccs3)nc3nc(C)cc(C)n23)cc1	inactive: 6.16%
CCC(C(=O)Nc1cc(Cl)ccc1OC)n1nc(-c2ccccc2)ccc1=O (stereo unspecified)	inactive: 0.722%
COc1ccc(C(=O)NCC(c2cccnc2)N2CCc3ccccc32)cc1 (stereo unspecified)	inactive: 13.2%
CCOc1ccccc1CNC(=O)c1cnc2sc(N3CCCCCC3)nn2c1=O	inactive: 1.93%
CCOc1ccc(C(=O)c2cn(Cc3ccccc3OC)c3ccc(F)cc3c2=O)cc1	inactive: -3.56%
COc1ccc(C(=O)c2cn(Cc3ccc(F)cc3)c3ccc(C)cc3c2=O)cc1	inactive: -1.36%
Cc1ccc(-c2nc3ccccn3c2Nc2ccc3c(c2)OCO3)cc1	inactive: -8.74%
Cc1ccc2c(c1)-c1c(cnn1CC(=O)N1CCN(c3cccc(C(F)(F)F)c3)CC1)CO2	inactive: -13.8%
CCCCNC(=O)c1cnn2c(C)c(Cc3c(C)cc(C)cc3C)c(C)nc12	inactive: -15.9%
COC(=O)c1ccc(OCC2c3cc(OC)c(OC)cc3CCN2C(=O)c2cccc(C)c2)cc1 (stereo unspecified)	inactive: -1.29%
Cc1ccc(C)c(N2CCN(CCCNc3ncnc4onc(-c5ccc(Cl)cc5)c34)CC2)c1	inactive: -3.48%
Cc1cccc(-n2ncc(C(=O)NCc3ccc4c(c3)OCO4)c2C2CCN(C(=O)OC(C)(C)C)CC2)c1	inactive: -8%
Cc1oc(-c2cccc(Br)c2)nc1Cn1c(SCc2cccc(F)c2)nc2cccnc21	inactive: -4.03%
COc1ccccc1NC(=O)c1cc2cc3ccc(OC)c(Cl)c3nc2s1	inactive: 8.79%
CCC1CCCCN1CCCNC(=O)c1ccc2c(c1)N(Cc1cccc(Cl)c1)C(=O)c1ccccc1S2(=O)=O (stereo unspecified)	inactive: -18.1%
CN(Cc1ccccc1)C(=O)c1ccc(CSc2nc3cccnc3n2Cc2ccccc2)cc1	inactive: -1.08%
COc1ccc(NC(=O)c2c(NC(=O)c3ccc(Br)cc3)sc3c2CCCC3)cc1	inactive: -4.81%
COc1ccc(C)cc1N(C)C(=O)c1c2c(nc3ccccc13)C(=O)N(C1CCCCC1)C2	inactive: -0.876%
CCCCN1C(C(=O)c2ccccc2)=C(OC(C)=O)c2ccccc2S1(=O)=O	inactive: 2.56%
Cc1c(NC(=O)C(C)(C)Oc2ccc(Cl)cc2)cccc1-c1nc2ncccc2o1	inactive: -2.3%
Cc1ccccc1Cc1c(C)nc2nc(SCC(=O)NCCc3ccc(Cl)cc3)nn2c1C	inactive: -12.4%

Some of the entries above, set out differently.
COc1ccc(NC(=O)c2c(NC(=O)c3ccc(Br)cc3)sc3c2CCCC3)cc1
  activity change, negative = inhibition: inactive: -4.81%
COc1ccc(C)cc1N(C)C(=O)c1c2c(nc3ccccc13)C(=O)N(C1CCCCC1)C2
  activity change, negative = inhibition: inactive: -0.876%

Later entries:

SMILES	activity change, negative = inhibition
COc1cc(NC(=O)CSc2nc3nc(C)c(Cc4ccc(C)cc4)c(C)n3n2)cc(OC)c1OC	inactive: -0.132%
O=C(Nc1ccc(F)cc1F)c1ccc2c(O)c(S(=O)(=O)c3ccc(Cl)cc3)c(=O)[nH]c2c1	inactive: 6.68%
COc1ccc(CNCCC(c2ccccc2)c2ccc3c(c2)OCO3)cc1 (stereo unspecified)	inactive: -6.7%
Cc1ccc(N2C(=O)CSC23C(=O)N(CC(=O)Nc2ccc(C(C)C)cc2)c2ccccc23)cc1C (stereo unspecified)	inactive: -14.1%
CCOc1ccccc1C(=O)Oc1c(S(=O)(=O)c2ccc(C)cc2)c(C)nn1-c1ccccc1	inactive: -1.9%
CCCCn1cc(S(=O)(=O)c2ccccc2)c(=O)c2cc(F)c(N3CCN(CCC)CC3)cc21	inactive: 1.25%
COc1ccc(CCN2CCC(CNC(=O)c3cnn(-c4ccc(C)cc4)c3C3CCN(C(=O)OC(C)(C)C)CC3)CC2)cc1	inactive: -7.6%
COc1ccc(C(CNC(=O)COc2cc(C)cc(C)c2)N2CCCCC2)cc1 (stereo unspecified)	inactive: 7.37%
CC(C)(C)c1ccc(-c2nc(SCCOc3ccc(Cl)cc3)n3[nH]c(=O)cc3n2)cc1	inactive: -3.11%
CCOc1ccccc1NC(=O)CSc1ncc(S(=O)(=O)c2ccc(C(C)(C)C)cc2)c(=O)[nH]1	inactive: -2.41%
Cc1ccc(C)c(CSc2cn(CCNC(=O)c3cccs3)c3ccccc23)c1	inactive: -2.36%
CCCn1cc(S(=O)(=O)c2ccccc2)c(=O)c2cc(F)c(N3CCCCCC3)cc21	inactive: -6.33%
CCOc1ccc(-n2c(C)nc3cc(C(=O)NCc4ccc(C)cc4)ccc32)cc1	inactive: -6.68%
COc1ccccc1Nc1c2c(nc3ccc(NC(=O)c4ccc(OC)c(OC)c4)cc13)CCCC2	inactive: -6.52%
Cc1ccc(C)c(-n2c(CCC(=O)O)ccc2-c2ccc(Cl)cc2)c1	inactive: 2.67%
Cc1cc2oc(=O)c(CC(=O)O)c(C)c2c2occ(-c3ccc(F)cc3)c12	inactive: -1.09%
CCCn1c(SCc2nc(-c3cc(OC)ccc3OC)no2)nnc1-c1ccc(Cl)cc1	inactive: -18.2%
CCN(CC)CCOC(=O)c1ccc(NC(=O)Cn2ncc3c([nH]c4ccc(C)cc43)c2=O)cc1	inactive: 2.86%
CCc1ccc(CN(Cc2ccco2)C(=O)c2ccc(OC)cc2)cc1	inactive: -8.82%
O=S(=O)(NCCc1nnc2ccc(SCc3ccc(Cl)cc3Cl)nn12)c1ccccc1	inactive: -1.19%
CCCn1c(SCc2nc(-c3ccc(OC)cc3OC)no2)nnc1-c1ccc(Cl)cc1	inactive: -28.3%
CCc1ccc(Nc2nc(N)nc(CSc3nc4ccccc4s3)n2)cc1	inactive: 2.53%
O=C(NCCC1=CCCCC1)c1ccc2c(c1)ncn2-c1ccc(F)c(F)c1	inactive: -6.55%
Cc1ccc(N(Cc2cccs2)C(=O)c2ccc(Br)o2)cc1	inactive: -6.43%
CSc1ccc2c(c1)C(N1CCN(C)CC1)Cc1ccccc1S2 (stereo unspecified)	inactive: 6.02%

Gathered by group, those above with bromine.
SMILES	activity change, negative = inhibition
Cc1oc(-c2cccc(Br)c2)nc1Cn1c(SCc2cccc(F)c2)nc2cccnc21	inactive: -4.03%
COc1ccc(NC(=O)c2c(NC(=O)c3ccc(Br)cc3)sc3c2CCCC3)cc1	inactive: -4.81%
Cc1ccc(N(Cc2cccs2)C(=O)c2ccc(Br)o2)cc1	inactive: -6.43%

Source: PubChem BioAssay AID1347431 (National Center for Advancing Translational Sciences (NCATS), 2020)
